Results deposited as PubChem BioAssay AID504804 (Drosophila RNAi Screening Center, 2011).
Purpose: 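Fly genes whose loss lessens doxorubicin-driven cell death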 (primary screen). Cell system: Drosophila Kc cells. Reagent: long dsRNA against Drosophila genes, 0.5 µg dsRNA per well. Time to read-out: 96 h (48 h knock-down, then 48 h drug). Conditions: doxorubicin 5 µg/ml for 48 h, added 48 h after dsRNA. Measured: 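Viability measured as cellular ATP by luminescence after 48 h knock-down then 48 h doxorubicin at 5 µg/ml; unnormalised plate counts for each replicate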. Scale: raw ATP luminescence: higher = more viable cells, protection from doxorubicin. Hit rule: 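Active when both duplicate wells lie at least 2 SD above the plate mean and protection is confirmed by rescreening and independent dsRNAs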.
The screen tested about 19,000 reagents; below is an unselected part of those with a known target gene and a result. Over the whole deposit, 47 (0.25%) got an active call. 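Signals are raw, not normalised; exact z-scores behind calls not deposited; actives needed confirmation, so some wells reaching 2 SD are inactive.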 A plus sign joins genes that one reagent is predicted to hit. Reagent sequences are not shown.

Target gene	DRSC id	raw ATP luminescence, replicate 1	raw ATP luminescence, replicate 2	Outcome
Dnah3 (GeneID 38586)	DRSC08130	1.65e5	1.29e5	inactive
Dnah3 (GeneID 38586)	DRSC08513	77857	91000	inactive
SIFa (GeneID 3346202)	DRSC04480	38793	41770	inactive
CNPYb (GeneID 40084)	DRSC09845	20410	22747	inactive
CG32440 (GeneID 318030)	DRSC11480	59673	72920	inactive
CG15553 (GeneID 43677)	DRSC15091	51080	46360	inactive
CG7382 (GeneID 33772)	DRSC03052	95110	53753	inactive
CG7806 (GeneID 34140)	DRSC03071	99133	63583	inactive
pug (GeneID 41279)	DRSC17036	58950	61170	inactive
CG10863 (GeneID 38463)	DRSC08145	61640	44033	inactive
CG15353 (GeneID 50191)	DRSC00383	1.75e5	1.86e5	inactive
CG34253 (GeneID 5740501)	DRSC09531	71410	79320	inactive
Pcmt (GeneID 40668)	DRSC12363	57263	56250	inactive
CG5986 (GeneID 192506)	DRSC15931	49143	53723	inactive
CG15577 (GeneID 50378)	DRSC18065	46930	43910	inactive
mRpL33 (GeneID 50381)	DRSC18319	45640	45500	inactive
dy (GeneID 32130)	DRSC20325	1.54e5	3.84e5	inactive
TORIP (GeneID 40158)	DRSC10104	24803	24360	inactive
CG17019 (GeneID 36425)	DRSC06642	69563	79850	inactive
Atet (GeneID 33636)	DRSC00263	19473	18880	inactive
yellow-e3 (GeneID 41651)	DRSC15170	67290	68520	inactive
CG31253 + CG31131	DRSC13839	1.89e5	2.25e5	inactive
CG7992 (GeneID 32917)	DRSC20070	3.27e5	3.28e5	inactive
CG18273 (GeneID 30991)	DRSC18150	44750	47980	inactive
RabGGTb (GeneID 47757)	DRSC00804	1.10e5	90347	inactive
M6 (GeneID 40383)	DRSC11869	64877	66590	inactive
CG12769 (GeneID 35770)	DRSC06167	61060	51530	inactive
Irk3 (GeneID 35131)	DRSC02047	43367	63043	inactive
Ask1 (GeneID 42366)	DRSC16789	49010	75700	inactive
CG3529 (GeneID 39093)	DRSC10369	34583	39053	inactive
CG15136 (GeneID 35033)	DRSC02436	66480	76367	inactive
Mct1 (GeneID 31198)	DRSC18681	47700	65360	inactive
pins (GeneID 53569)	DRSC17043	33230	42270	inactive
MESR6 (GeneID 40083)	DRSC10720	18020	21583	inactive
Toll-9 (GeneID 40245)	DRSC11776	65187	67817	inactive
Membrin (GeneID 38614)	DRSC10448	86137	75450	inactive
CG17687 (GeneID 39495)	DRSC10279	1.06e5	74743	inactive
AGBE (GeneID 326264)	DRSC06861	77207	67973	inactive
Cad89D (GeneID 42006)	DRSC15022	79660	73320	inactive
CG4461 (GeneID 39074)	DRSC10423	82630	69327	inactive
odd (GeneID 33583)	DRSC00832	9297	11723	inactive
CG11382 (GeneID 31069)	DRSC18624	49460	38420	inactive
CG32436 (GeneID 40362)	DRSC11683	63310	65963	inactive
CG32436 (GeneID 40362)	DRSC11796	66740	56057	inactive
CG12477 (GeneID 40040)	DRSC09886	37627	27837	inactive
Vps50 (GeneID 37021)	DRSC06910	53563	52137	inactive
Ance-3 (GeneID 34808)	DRSC02648	22913	86503	inactive
Ance-3 (GeneID 34808)	DRSC02649	63587	67040	inactive
CG13659 (GeneID 43059)	DRSC14660	57700	68590	inactive
CG30259 (GeneID 37606)	DRSC04164	56263	51457	inactive
CG30259 (GeneID 37606)	DRSC04165	44183	46927	inactive
CG4455 (GeneID 34975)	DRSC01983	88023	67517	inactive
Prp18 (GeneID 42285)	DRSC16802	40883	42600	inactive
shf (GeneID 31617)	DRSC18283	43460	47260	inactive
CG14309 (GeneID 42212)	DRSC14788	60790	67260	inactive
Cpr65Aw (GeneID 38706)	DRSC08794	1.29e5	99483	inactive
ppk28 (GeneID 32671)	DRSC19919	3.76e5	3.21e5	inactive
Arl6IP1 (GeneID 42027)	DRSC14231	74710	56740	inactive
CG3502 (GeneID 37695)	DRSC04381	76307	75907	inactive
MED18 (GeneID 31140)	DRSC18549	48210	47660	inactive
CG6610 (GeneID 38693)	DRSC10674	86577	81987	inactive
alka (GeneID 36145)	DRSC06136	37410	79427	inactive
Pdzd8 (GeneID 32157)	DRSC19355	3.54e5	3.28e5	inactive
CycB3 (GeneID 42971)	DRSC16618	57310	63540	inactive
CG31898 (GeneID 319012)	DRSC01019	2.83e5	3.05e5	inactive
CG7824 (GeneID 43530)	DRSC16321	49570	41630	inactive
AlaRS-m (GeneID 38595)	DRSC09660	36527	41957	inactive
MAPk-Ak2 (GeneID 44573)	DRSC18678	37680	40580	inactive
RpS19b (GeneID 42830)	DRSC15773	42290	43840	inactive
BicC (GeneID 34946)	DRSC02005	54570	53503	inactive
l(2)k05911 (GeneID 34731)	DRSC02523	2.05e5	2.20e5	inactive
CG13377 (GeneID 30972)	DRSC18622	65690	55120	inactive
Rpi (GeneID 246599)	DRSC04583	63530	47223	inactive
Or65a (GeneID 318011)	DRSC08808	1.15e5	1.59e5	inactive
Rich (GeneID 40456)	DRSC11607	31723	28090	inactive
Phyhd1 (GeneID 41275)	DRSC14911	53133	59043	inactive
CG14229 (GeneID 32980)	DRSC19585	1.22e5	1.52e5	inactive
synr (GeneID 33702)	DRSC02369	28360	36600	inactive
CG14391 (GeneID 41567)	DRSC14850	52507	53737	inactive
CG4020 (GeneID 31522)	DRSC18337	47380	42470	inactive
CG7675 (GeneID 42211)	DRSC16280	43300	44180	inactive
CG30350 (GeneID 246556)	DRSC07690	49057	87447	inactive
CG10237 (GeneID 35222)	DRSC02029	86750	65183	inactive
CG14147 (GeneID 39227)	DRSC10149	1.01e5	1.00e5	inactive
polybromo (GeneID 42954)	DRSC14307	35480	34497	inactive
CG2887 (GeneID 31978)	DRSC18235	2.86e5	2.86e5	inactive
Miox (GeneID 39391)	DRSC10747	76090	76753	inactive
CG6878 (GeneID 39656)	DRSC10737	89763	67530	inactive
CG15539 (GeneID 43627)	DRSC15075	49890	43560	inactive
CG3430 (GeneID 33976)	DRSC02713	88480	62843	inactive
CG10561 (GeneID 35189)	DRSC02068	88980	66053	inactive
CG7582 (GeneID 43492)	DRSC16261	49880	37680	inactive
Cdk5alpha (GeneID 34385)	DRSC03290	44353	72973	inactive
CG15745 (retired record) (GeneID 32283)	DRSC19711	3.41e5	3.53e5	inactive
CG33310 (GeneID 2768910)	DRSC01897	66533	73413	inactive
CG2065 (GeneID 35707)	DRSC06813	43240	97820	inactive
Sec71 (GeneID 34785)	DRSC01893	74923	75863	inactive
AkhR (GeneID 33942)	DRSC03329	99997	76683	inactive
alphaTub85E (GeneID 41183)	DRSC16899	64203	50373	inactive
Gnmt (GeneID 41561)	DRSC15987	55777	48357	inactive
CG14830 (GeneID 38800)	DRSC08876	1.66e5	1.34e5	inactive
CG14830 (GeneID 38800)	DRSC10200	81617	70223	inactive
CG11964 (GeneID 41068)	DRSC14447	53753	28780	inactive
CG9395 (GeneID 34742)	DRSC03218	60847	64187	inactive
Ugt302K1 (GeneID 53502)	DRSC16086	21167	45403	inactive
Usp8 (GeneID 42509)	DRSC15876	47050	46107	inactive
eRF3 (GeneID 34658)	DRSC03322	73627	87713	inactive

Reformatted: results already given
pins (GeneID 53569) [DRSC17043]
- raw ATP luminescence, replicate 1: 33230
- raw ATP luminescence, replicate 2: 42270
- Outcome: inactive

MESR6 (GeneID 40083) [DRSC10720]
- raw ATP luminescence, replicate 1: 18020
- raw ATP luminescence, replicate 2: 21583
- Outcome: inactive

Toll-9 (GeneID 40245) [DRSC11776]
- raw ATP luminescence, replicate 1: 65187
- raw ATP luminescence, replicate 2: 67817
- Outcome: inactive

Membrin (GeneID 38614) [DRSC10448]
- raw ATP luminescence, replicate 1: 86137
- raw ATP luminescence, replicate 2: 75450
- Outcome: inactive

CG17687 (GeneID 39495) [DRSC10279]
- raw ATP luminescence, replicate 1: 1.06e5
- raw ATP luminescence, replicate 2: 74743
- Outcome: inactive

AGBE (GeneID 326264) [DRSC06861]
- raw ATP luminescence, replicate 1: 77207
- raw ATP luminescence, replicate 2: 67973
- Outcome: inactive

Cad89D (GeneID 42006) [DRSC15022]
- raw ATP luminescence, replicate 1: 79660
- raw ATP luminescence, replicate 2: 73320
- Outcome: inactive

CG4461 (GeneID 39074) [DRSC10423]
- raw ATP luminescence, replicate 1: 82630
- raw ATP luminescence, replicate 2: 69327
- Outcome: inactive

odd (GeneID 33583) [DRSC00832]
- raw ATP luminescence, replicate 1: 9297
- raw ATP luminescence, replicate 2: 11723
- Outcome: inactive

CG11382 (GeneID 31069) [DRSC18624]
- raw ATP luminescence, replicate 1: 49460
- raw ATP luminescence, replicate 2: 38420
- Outcome: inactive

CG32436 (GeneID 40362) [DRSC11683]
- raw ATP luminescence, replicate 1: 63310
- raw ATP luminescence, replicate 2: 65963
- Outcome: inactive

CG32436 (GeneID 40362) [DRSC11796]
- raw ATP luminescence, replicate 1: 66740
- raw ATP luminescence, replicate 2: 56057
- Outcome: inactive

CG12477 (GeneID 40040) [DRSC09886]
- raw ATP luminescence, replicate 1: 37627
- raw ATP luminescence, replicate 2: 27837
- Outcome: inactive

Vps50 (GeneID 37021) [DRSC06910]
- raw ATP luminescence, replicate 1: 53563
- raw ATP luminescence, replicate 2: 52137
- Outcome: inactive

Ance-3 (GeneID 34808) [DRSC02648]
- raw ATP luminescence, replicate 1: 22913
- raw ATP luminescence, replicate 2: 86503
- Outcome: inactive
